# Experimental data reported in the supplement of paper PMC10849652.
# The chains behind the UniProt entries cited, without tags or fusion partners. Where a name states a change or a piece, a line headed by the entry shows the natural chain unless it says otherwise.
# UniProt Q9H8V3: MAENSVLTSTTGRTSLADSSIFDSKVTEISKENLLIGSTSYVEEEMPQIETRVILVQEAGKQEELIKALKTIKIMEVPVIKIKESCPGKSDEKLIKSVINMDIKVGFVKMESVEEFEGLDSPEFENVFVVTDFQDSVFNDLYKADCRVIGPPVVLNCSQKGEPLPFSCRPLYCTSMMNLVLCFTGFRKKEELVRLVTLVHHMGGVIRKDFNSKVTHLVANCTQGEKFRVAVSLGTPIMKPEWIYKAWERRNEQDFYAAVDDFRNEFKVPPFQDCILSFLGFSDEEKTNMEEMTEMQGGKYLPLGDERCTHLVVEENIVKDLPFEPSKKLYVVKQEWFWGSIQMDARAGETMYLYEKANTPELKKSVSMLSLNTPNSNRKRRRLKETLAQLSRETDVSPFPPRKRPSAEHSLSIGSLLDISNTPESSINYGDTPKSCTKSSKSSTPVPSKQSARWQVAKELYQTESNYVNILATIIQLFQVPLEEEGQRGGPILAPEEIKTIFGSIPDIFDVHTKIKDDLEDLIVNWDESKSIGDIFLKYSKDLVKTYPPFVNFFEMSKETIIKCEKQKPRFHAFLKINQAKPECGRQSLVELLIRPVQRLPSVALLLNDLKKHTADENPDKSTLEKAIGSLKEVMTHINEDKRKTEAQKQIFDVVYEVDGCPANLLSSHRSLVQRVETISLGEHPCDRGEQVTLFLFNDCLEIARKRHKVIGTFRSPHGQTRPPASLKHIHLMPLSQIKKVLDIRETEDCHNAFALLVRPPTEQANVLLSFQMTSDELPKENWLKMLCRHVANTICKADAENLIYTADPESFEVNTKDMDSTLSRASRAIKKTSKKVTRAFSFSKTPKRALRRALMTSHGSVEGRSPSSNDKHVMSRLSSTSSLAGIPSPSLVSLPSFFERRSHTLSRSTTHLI
# UniProt P41567, whole entry, looked up: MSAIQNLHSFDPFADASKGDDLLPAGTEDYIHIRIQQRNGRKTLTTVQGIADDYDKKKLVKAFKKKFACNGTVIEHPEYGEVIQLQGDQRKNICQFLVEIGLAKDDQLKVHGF
# UniProt P0DPD7: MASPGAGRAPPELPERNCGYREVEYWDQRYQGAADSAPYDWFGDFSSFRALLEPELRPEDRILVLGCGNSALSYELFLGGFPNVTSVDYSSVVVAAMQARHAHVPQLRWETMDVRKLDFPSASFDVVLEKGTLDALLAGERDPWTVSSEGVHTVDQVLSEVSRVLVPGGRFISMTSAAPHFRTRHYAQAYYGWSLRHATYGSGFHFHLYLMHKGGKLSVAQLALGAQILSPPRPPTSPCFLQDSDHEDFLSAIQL
# UniProt Q5VTE0, whole entry, looked up: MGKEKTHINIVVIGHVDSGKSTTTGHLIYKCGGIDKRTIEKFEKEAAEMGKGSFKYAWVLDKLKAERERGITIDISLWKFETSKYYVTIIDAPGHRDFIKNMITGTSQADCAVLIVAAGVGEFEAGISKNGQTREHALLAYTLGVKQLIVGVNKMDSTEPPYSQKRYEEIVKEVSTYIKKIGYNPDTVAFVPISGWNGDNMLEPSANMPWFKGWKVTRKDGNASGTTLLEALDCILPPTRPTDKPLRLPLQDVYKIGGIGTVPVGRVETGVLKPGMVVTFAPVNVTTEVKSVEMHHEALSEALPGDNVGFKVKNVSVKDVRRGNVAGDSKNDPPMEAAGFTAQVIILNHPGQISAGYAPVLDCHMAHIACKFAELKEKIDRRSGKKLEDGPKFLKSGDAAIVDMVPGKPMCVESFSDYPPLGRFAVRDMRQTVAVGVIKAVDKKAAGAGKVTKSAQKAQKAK
# UniProt O60869: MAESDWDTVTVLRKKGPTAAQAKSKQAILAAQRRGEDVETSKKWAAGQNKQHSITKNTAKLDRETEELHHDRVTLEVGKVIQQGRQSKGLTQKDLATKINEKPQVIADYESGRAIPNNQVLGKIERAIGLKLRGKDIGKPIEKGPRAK
# UniProt P60981: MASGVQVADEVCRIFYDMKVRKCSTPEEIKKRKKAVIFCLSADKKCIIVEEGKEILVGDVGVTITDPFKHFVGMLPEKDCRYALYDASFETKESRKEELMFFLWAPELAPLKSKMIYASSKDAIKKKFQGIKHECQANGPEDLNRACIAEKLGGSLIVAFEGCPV
# UniProt O14641: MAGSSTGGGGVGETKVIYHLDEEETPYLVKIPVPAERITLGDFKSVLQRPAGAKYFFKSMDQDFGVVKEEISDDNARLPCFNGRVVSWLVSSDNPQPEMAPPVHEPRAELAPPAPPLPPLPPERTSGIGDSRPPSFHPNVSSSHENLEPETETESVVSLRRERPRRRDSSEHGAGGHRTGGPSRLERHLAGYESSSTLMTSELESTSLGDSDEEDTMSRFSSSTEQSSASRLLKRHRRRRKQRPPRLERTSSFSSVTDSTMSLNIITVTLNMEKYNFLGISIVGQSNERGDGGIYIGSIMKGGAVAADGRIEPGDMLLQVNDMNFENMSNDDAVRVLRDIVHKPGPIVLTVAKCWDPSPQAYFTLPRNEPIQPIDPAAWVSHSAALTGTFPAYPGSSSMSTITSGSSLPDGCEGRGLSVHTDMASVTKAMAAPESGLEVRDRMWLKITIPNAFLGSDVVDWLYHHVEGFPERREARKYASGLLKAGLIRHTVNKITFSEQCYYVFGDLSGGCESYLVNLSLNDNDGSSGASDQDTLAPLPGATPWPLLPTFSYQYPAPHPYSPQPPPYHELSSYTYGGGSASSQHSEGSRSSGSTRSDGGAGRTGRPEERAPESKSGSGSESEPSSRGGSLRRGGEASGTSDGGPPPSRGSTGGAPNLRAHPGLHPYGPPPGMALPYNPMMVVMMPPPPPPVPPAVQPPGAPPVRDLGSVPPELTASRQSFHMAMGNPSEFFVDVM
# UniProt Q92785, whole entry, looked up: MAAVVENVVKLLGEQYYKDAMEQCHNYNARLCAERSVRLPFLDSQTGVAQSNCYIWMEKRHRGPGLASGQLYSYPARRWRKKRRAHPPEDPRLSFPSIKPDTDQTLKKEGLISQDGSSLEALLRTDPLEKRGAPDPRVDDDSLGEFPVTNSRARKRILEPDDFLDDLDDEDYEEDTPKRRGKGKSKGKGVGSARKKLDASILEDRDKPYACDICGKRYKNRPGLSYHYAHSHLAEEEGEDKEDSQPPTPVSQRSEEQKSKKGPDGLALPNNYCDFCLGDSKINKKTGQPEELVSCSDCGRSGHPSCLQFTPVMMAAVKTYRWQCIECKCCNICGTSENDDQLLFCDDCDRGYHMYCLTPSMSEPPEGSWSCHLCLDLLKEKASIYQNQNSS
# UniProt O75071: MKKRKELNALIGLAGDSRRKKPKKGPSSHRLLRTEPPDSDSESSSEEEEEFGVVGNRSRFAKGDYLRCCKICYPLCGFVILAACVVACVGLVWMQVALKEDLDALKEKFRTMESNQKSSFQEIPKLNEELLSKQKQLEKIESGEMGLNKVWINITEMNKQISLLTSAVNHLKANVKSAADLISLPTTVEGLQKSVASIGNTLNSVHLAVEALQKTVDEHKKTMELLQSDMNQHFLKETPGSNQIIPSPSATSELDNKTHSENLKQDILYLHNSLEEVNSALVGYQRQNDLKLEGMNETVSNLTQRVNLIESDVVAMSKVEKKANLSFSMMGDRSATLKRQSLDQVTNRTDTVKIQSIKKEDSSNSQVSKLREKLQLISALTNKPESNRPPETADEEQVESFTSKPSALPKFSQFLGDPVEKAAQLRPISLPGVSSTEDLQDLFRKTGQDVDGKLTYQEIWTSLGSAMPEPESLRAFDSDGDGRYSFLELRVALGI
# UniProt Q16254: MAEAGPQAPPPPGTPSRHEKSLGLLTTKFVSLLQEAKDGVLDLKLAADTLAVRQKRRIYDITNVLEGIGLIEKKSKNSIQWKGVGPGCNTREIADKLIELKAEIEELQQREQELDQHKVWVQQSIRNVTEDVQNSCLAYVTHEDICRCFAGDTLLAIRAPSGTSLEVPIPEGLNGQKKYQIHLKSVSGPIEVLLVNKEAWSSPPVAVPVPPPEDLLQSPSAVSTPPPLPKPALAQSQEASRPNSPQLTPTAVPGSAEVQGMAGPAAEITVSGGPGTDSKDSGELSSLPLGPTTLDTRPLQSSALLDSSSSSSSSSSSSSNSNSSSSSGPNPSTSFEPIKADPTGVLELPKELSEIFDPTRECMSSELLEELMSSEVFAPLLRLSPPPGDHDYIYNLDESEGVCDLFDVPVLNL
# UniProt P42892: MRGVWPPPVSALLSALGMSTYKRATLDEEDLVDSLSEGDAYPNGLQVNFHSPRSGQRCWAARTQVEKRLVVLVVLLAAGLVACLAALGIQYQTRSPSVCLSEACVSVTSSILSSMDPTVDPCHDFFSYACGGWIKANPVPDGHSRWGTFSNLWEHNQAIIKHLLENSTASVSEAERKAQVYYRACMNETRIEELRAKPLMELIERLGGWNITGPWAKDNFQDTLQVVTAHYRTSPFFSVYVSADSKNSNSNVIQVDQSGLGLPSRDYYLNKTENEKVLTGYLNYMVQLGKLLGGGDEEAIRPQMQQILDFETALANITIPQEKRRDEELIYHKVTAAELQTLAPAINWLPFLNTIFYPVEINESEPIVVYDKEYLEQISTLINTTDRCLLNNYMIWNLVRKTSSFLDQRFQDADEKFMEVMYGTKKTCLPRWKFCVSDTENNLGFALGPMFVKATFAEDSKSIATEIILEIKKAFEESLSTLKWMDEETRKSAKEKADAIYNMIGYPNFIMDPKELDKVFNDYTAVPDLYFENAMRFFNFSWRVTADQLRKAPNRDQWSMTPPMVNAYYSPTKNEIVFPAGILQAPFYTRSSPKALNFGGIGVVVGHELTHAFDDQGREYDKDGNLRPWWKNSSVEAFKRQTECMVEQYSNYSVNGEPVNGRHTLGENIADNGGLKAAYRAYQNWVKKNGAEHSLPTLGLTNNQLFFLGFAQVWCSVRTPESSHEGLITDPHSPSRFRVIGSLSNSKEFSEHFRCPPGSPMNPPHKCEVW
# UniProt Q9H2P9: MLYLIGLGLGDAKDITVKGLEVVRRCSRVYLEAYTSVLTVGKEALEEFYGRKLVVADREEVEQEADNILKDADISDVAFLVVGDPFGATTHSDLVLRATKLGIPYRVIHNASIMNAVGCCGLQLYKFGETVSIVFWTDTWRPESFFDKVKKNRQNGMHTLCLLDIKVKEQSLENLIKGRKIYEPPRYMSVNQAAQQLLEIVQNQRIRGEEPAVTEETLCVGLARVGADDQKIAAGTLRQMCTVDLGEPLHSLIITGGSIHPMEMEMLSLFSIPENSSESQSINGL
# UniProt P42126: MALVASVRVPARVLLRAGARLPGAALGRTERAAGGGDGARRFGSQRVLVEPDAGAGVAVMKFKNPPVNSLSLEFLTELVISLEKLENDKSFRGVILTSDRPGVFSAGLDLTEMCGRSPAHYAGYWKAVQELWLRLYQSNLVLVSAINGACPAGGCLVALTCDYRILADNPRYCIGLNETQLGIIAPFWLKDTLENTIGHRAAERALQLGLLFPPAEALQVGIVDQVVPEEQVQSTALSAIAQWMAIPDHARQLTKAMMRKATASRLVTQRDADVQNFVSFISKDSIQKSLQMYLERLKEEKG
# UniProt Q8WWZ3: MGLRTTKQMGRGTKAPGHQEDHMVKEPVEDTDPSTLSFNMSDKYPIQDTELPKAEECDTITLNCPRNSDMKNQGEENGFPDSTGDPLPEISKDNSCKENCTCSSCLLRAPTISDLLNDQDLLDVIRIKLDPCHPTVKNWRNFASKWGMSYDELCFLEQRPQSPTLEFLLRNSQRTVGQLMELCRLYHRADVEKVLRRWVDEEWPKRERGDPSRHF
# This is one part of the list.
# Key:
# Experiment in all cases: log2 fold change, soluble protein after heating vs DMSO (PISA); higher = thermal stabilisation; K562 lysate, 10 uM; active = over 0.2 and 3.5 SD of the protein, either way, in both replicates (recomputed)
# [1] = compound: CS(=O)(=O)CCNCc1ccc(-c2ccc3ncnc(Nc4ccc(OCc5cccc(F)c5)c(Cl)c4)c3c2)o1 [lapatinib]
# In short: (§1)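 Log-two fold change in thermal stability relative to solvent controls is reported from duplicates. For each sample, crude K562 extract from dounce-homogenised pellets in PBS pH 7.4 with 1 mM MgCl2, at 1 mg/mL protein, was treated with 10 μM compound for 30 min. Aliquots heated for 3 min across 48°C-58°C were pooled, brought to 0.5% NP-40 at 4°C and cleared at 21,000xg for 90 min. The supernatant was quantified by TMTpro 16plex LC-MS/MS with channel sums equalised.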
# [2] = compound: CS(=O)(=O)N1CCN(Cc2cc3nc(-c4cccc5[nH]ncc45)nc(N4CCOCC4)c3s2)CC1 [pictilisib]
# In short: as §1
# [3] = compound: C[C@@H](Oc1cc(-c2cnn(C3CCNCC3)c2)cnc1N)c1c(Cl)ccc(F)c1Cl [crizotinib]
# In short: as §1
# [4] = compound: C[C@H](C1=CC=C(C=C1)C(=O)NC2=C3C=CNC3=NC=C2)N
# In short: as §1
# [5] = compound: C[C@H](Nc1ncnc2nc[nH]c12)c1cc2cccc(Cl)c2c(=O)n1-c1ccccc1 [duvelisib]
# In short: as §1
# [6] = compound: Cc1cc(Nc2cc(CN3CCOCC3)c3nc(C)c(Cc4ccc(Cl)cc4F)n3n2)n[nH]1 [gandotinib]
# In short: as §1
# [7] = compound: Cc1cc(Nc2cc(N3CCN(C)CC3)nc(Sc3ccc(NC(=O)C4CC4)cc3)n2)n[nH]1 [tozasertib]
# In short: as §1
# [8] = compound: Cc1ccc(-n2nc(C(C)(C)C)cc2NC(=O)Nc2ccc(OCCN3CCOCC3)c3ccccc23)cc1 [doramapimod]
# In short: as §1
# [9] = compound: Cc1ccc(NC(=O)c2ccc(CN3CC[C@H](N(C)C)C3)c(C(F)(F)F)c2)cc1Nc1nccc(-c2cncnc2)n1 [bafetinib]
# In short: as §1
# [10] = compound: Cc1cccc(CC(=O)N2CCc3c2ccc(-c2cn(C)c4ncnc(N)c24)c3F)n1
# In short: as §1
# [11] = compound: Cc1cn(-c2cc(NC(=O)c3ccc(C)c(Nc4nccc(-c5cccnc5)n4)c3)cc(C(F)(F)F)c2)cn1 [nilotinib]
# In short: as §1
# [12] = compound: Cc1nc(Nc2n[nH]c3c2CN(C(=O)N[C@H](CN(C)C)c2ccccc2)C3(C)C)c2sccc2n1
# In short: as §1
# [13] = compound: Cc1nc(Nc2ncc(C(=O)Nc3c(C)cccc3Cl)s2)cc(N2CCN(CCO)CC2)n1 [dasatinib]
# In short: as §1
# [14] = compound: Cc1ncc(-c2ccnc(Nc3ccc(S(C)(=O)=O)cc3)n2)n1C(C)C
# In short: as §1
# [15] = compound: Cn1cc(-c2ccc3c(c2)CCN3C(=O)Cc2cccc(C(F)(F)F)c2)c2c(N)ncnc21
# In short: as §1
# [16] = compound: Cn1cc(CNCC2CCN(c3ncc(C(=O)NO)cn3)CC2)c2ccccc21 [quisinostat]
# In short: as §1
# [17] = compound: Cn1cncc1[C@@](N)(c1ccc(Cl)cc1)c1ccc2c(c1)c(-c1cccc(Cl)c1)cc(=O)n2C [tipifarnib]
# In short: as §1
# [18] = compound: NC(=O)Nc1cc(-c2cccc(F)c2)sc1C(=O)N[C@H]1CCCNC1
# In short: as §1
# [19] = compound: NC(=O)c1cnc(N[C@@H]2CCCC[C@@H]2N)nc1Nc1cccc(-n2nccn2)c1
# In short: as §1
# [20] = compound: NC1(c2ccc(-c3nc4ccn5c(=O)[nH]nc5c4cc3-c3ccccc3)cc2)CCC1
# In short: as §1
Target,log2 fold change [1],log2 fold change [2],log2 fold change [3],log2 fold change [4],log2 fold change [5],log2 fold change [6],log2 fold change [7],log2 fold change [8],log2 fold change [9],log2 fold change [10],log2 fold change [11],log2 fold change [12],log2 fold change [13],log2 fold change [14],log2 fold change [15],log2 fold change [16],log2 fold change [17],log2 fold change [18],log2 fold change [19],log2 fold change [20]
ECT2 (UniProt Q9H8V3),inactive: 0.067,inactive: -0.117,inactive: 0.069,inactive: -0.102,inactive: 0.014,inactive: 0.162,inactive: 0.115,inactive: 0.112,inactive: -0.075,inactive: 0.096,inactive: -0.035,inactive: -0.053,inactive: 0.095,inactive: -0.003,inactive: -0.005,inactive: -0.096,inactive: -0.041,inactive: -0.021,inactive: 0.07,inactive: -0.076
EIF1 (UniProt P41567),inactive: 0.053,inactive: 0.016,inactive: 0.002,inactive: -0.051,inactive: 0.044,inactive: 0.068,inactive: -0.008,inactive: -0.092,inactive: 0.052,inactive: 0.021,inactive: 0.126,inactive: 0.084,inactive: 0.001,inactive: 0.142,inactive: -0.03,inactive: 0.133,inactive: 0,inactive: -0.018,inactive: -0.076,inactive: -0.032
EEF1AKMT4 (UniProt P0DPD7),inactive: -0.052,inactive: 0.009,inactive: -0.012,inactive: -0.046,inactive: -0.038,inactive: 0.067,inactive: -0.072,inactive: -0.038,inactive: -0.171,inactive: 0.193,inactive: -0.01,inactive: -0.064,inactive: -0.051,inactive: 0.04,inactive: -0.109,inactive: 0.075,inactive: 0.004,inactive: 0.105,inactive: 0.096,inactive: -0.064
EEF1A1P5 (UniProt Q5VTE0),inactive: -0.006,inactive: 0.027,inactive: -0.026,inactive: -0.114,inactive: -0.098,inactive: 0.044,inactive: -0.001,inactive: 0.011,inactive: -0.017,inactive: 0.117,inactive: -0.055,inactive: 0.005,inactive: -0.172,inactive: -0.083,inactive: 0.005,inactive: -0.054,inactive: 0.008,inactive: 0.016,inactive: 0.006,inactive: -0.013
EDF1 (UniProt O60869),inactive: -0.04,inactive: -0.017,inactive: 0.044,inactive: -0.033,inactive: 0.066,inactive: 0.078,inactive: -0.017,inactive: -0.063,inactive: -0.02,inactive: 0.019,inactive: -0.005,inactive: -0.012,inactive: 0.02,inactive: -0.01,inactive: -0.072,inactive: 0.007,inactive: -0.015,inactive: -0.023,inactive: -0.054,inactive: 0.012
DSTN (UniProt P60981),inactive: 0.01,inactive: 0.008,inactive: 0.007,inactive: -0.02,inactive: -0.001,inactive: -0.023,inactive: 0.031,inactive: -0.015,inactive: 0.057,inactive: 0.019,inactive: 0.01,inactive: 0.012,inactive: -0.013,inactive: 0.009,inactive: 0.034,inactive: 0.045,inactive: -0.005,inactive: -0.022,inactive: 0.022,inactive: -0.008
DVL2 (UniProt O14641),inactive: 0.096,inactive: -0.037,inactive: -0.056,inactive: 0.026,inactive: 0,inactive: -0.107,inactive: -0.039,inactive: 0.106,inactive: -0.232,inactive: 0.054,inactive: -0.03,inactive: -0.003,inactive: -0.114,inactive: 0.027,inactive: -0.063,inactive: -0.13,inactive: -0.027,inactive: 0.102,inactive: 0.236,inactive: -0.097
DPF2 (UniProt Q92785),inactive: -0.016,inactive: -0.017,inactive: 0.013,inactive: 0.065,inactive: -0.008,inactive: -0.035,inactive: 0.004,inactive: 0.071,inactive: -0.069,inactive: -0.024,inactive: -0.011,inactive: 0.014,inactive: 0.03,inactive: 0.019,inactive: 0.026,inactive: -0.01,inactive: -0.034,inactive: 0.002,inactive: 0.014,inactive: 0.015
EFCAB14 (UniProt O75071),inactive: -0.051,inactive: -0.058,inactive: 0.006,inactive: 0.037,inactive: 0.022,inactive: 0.064,inactive: 0.086,inactive: 0.011,inactive: -0.002,inactive: -0.084,inactive: -0.16,inactive: 0.016,inactive: 0.049,inactive: 0.001,inactive: -0.005,inactive: -0.001,inactive: 0.013,inactive: 0.053,inactive: -0.005,inactive: 0.013
E2F4 (UniProt Q16254),inactive: 0.014,inactive: 0.018,inactive: -0.03,inactive: -0.01,inactive: 0.107,inactive: 0.041,inactive: 0.038,inactive: 0.055,inactive: -0.089,inactive: 0.024,inactive: 0.001,inactive: -0.003,inactive: -0.001,inactive: -0.012,inactive: 0.061,inactive: -0.082,inactive: -0.013,inactive: -0.028,inactive: 0.011,inactive: -0.016
ECE1 (UniProt P42892),inactive: 0.002,inactive: -0.053,inactive: 0.005,inactive: -0.009,inactive: 0.025,inactive: 0,inactive: -0.028,inactive: -0.025,inactive: -0.039,inactive: 0.064,inactive: -0.003,inactive: 0.019,inactive: -0.002,inactive: 0.012,inactive: -0.013,inactive: 0.061,inactive: 0.034,inactive: -0.049,inactive: 0.012,inactive: -0.058
DPH5 isoform 5 (UniProt Q9H2P9),inactive: 0.009,inactive: 0.025,inactive: 0.126,inactive: -0.019,inactive: 0.128,active: 0.495,inactive: 0.005,inactive: -0.024,inactive: 0.143,inactive: 0.101,inactive: -0.01,inactive: 0.289,active: 0.418,inactive: 0.009,inactive: 0.062,inactive: 0.003,inactive: 0.017,inactive: -0.048,inactive: -0.025,active: 0.377
DYRK1A (UniProt Q13627),inactive: -0.024,inactive: -0.003,inactive: 0.018,inactive: 0.055,inactive: -0.021,inactive: -0.012,inactive: 0.03,inactive: -0.06,inactive: -0.028,inactive: -0.021,inactive: -0.018,inactive: 0.062,inactive: -0.021,inactive: 0.031,inactive: 0.033,inactive: -0.026,inactive: -0.06,inactive: 0.072,inactive: -0.01,inactive: -0.013
DPYSL2 (UniProt Q16555),inactive: -0.021,inactive: -0.011,inactive: 0.018,inactive: -0.044,inactive: 0.013,inactive: 0.076,inactive: -0.045,inactive: 0.022,inactive: -0.003,inactive: 0.046,inactive: 0.004,inactive: 0.068,inactive: 0.025,inactive: 0.049,inactive: -0.039,inactive: -0.007,inactive: 0.048,inactive: -0.011,inactive: 0.007,inactive: -0.035
ECI1 (UniProt P42126),inactive: 0.005,inactive: -0.011,inactive: 0.037,inactive: -0.024,inactive: 0.009,inactive: 0.008,inactive: -0.004,inactive: -0.006,inactive: -0.026,inactive: -0.026,inactive: 0.016,inactive: 0.004,inactive: -0.015,inactive: -0.025,inactive: -0.01,inactive: 0.031,inactive: 0.001,inactive: -0.009,inactive: -0.038,inactive: 0.031
EDARADD (UniProt Q8WWZ3),inactive: -0.037,inactive: -0.122,inactive: 0.027,inactive: -0.049,inactive: 0.015,inactive: 0.074,inactive: 0.082,inactive: 0.086,inactive: 0,inactive: -0.027,inactive: 0.076,inactive: -0.036,inactive: -0.004,inactive: 0.008,inactive: 0.023,inactive: 0.07,inactive: 0.065,inactive: -0.05,inactive: -0.032,inactive: 0.019
